For one substance, binding results are on record in doi:10.1101/238709.

By UniProt entry, the sequences of proteins in these tests, tags left out. Where a name states a change or a piece, a line headed by the entry shows the natural chain unless it says otherwise.
UniProt Q05826: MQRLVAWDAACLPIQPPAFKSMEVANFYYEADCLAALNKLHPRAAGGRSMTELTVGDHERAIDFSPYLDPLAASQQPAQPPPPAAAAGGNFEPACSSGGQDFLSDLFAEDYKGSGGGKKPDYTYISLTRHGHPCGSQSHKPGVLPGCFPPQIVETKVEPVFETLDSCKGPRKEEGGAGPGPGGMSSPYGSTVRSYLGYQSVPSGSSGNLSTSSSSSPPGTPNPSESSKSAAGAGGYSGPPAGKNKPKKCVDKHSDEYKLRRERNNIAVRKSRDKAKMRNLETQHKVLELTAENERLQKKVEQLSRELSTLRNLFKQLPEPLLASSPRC
UniProt Q92830: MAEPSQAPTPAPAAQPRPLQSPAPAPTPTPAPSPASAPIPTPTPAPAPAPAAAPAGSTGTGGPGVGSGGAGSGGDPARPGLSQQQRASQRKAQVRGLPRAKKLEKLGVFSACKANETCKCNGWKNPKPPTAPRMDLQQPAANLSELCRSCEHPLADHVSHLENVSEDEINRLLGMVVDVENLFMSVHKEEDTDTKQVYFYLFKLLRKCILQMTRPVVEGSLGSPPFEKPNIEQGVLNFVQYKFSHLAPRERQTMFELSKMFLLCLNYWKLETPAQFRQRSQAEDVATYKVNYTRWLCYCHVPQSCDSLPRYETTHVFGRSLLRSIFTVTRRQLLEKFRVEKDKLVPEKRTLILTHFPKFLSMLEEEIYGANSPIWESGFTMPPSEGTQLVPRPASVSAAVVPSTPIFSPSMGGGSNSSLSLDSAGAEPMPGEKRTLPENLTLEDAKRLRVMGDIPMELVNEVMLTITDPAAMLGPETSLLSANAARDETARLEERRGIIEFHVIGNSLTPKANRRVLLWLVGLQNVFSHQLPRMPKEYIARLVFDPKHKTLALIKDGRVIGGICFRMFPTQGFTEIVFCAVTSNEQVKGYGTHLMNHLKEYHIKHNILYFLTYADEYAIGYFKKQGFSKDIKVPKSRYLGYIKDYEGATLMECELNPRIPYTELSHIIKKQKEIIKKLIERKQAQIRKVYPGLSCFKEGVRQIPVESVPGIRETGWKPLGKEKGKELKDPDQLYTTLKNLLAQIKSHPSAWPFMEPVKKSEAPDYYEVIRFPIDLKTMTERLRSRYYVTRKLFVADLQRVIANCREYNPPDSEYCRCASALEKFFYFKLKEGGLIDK

The target of the experiment is LAP*Δ4,7 (UniProt Q05826). The experiment is described as follows: co-IP.

No constants are given. Whether binding was seen depends on the method and setting. In cells and extracts the contact can be indirect.

As to “histone acetyltransferase GCN5 (from UniProt Q92830 1-837)”, the binding result is “no binding”.
